The results in this text go back to publication PMC10873574.

No constants are given. Whether binding was seen depends on the method and setting. Binding can be weak; no strength is given. Sequences can lack the tags named with a protein. For some assays here: In cells and extracts the contact can be indirect.

In experiment [1] the target is T1, AD-VvMYBA1 (Vitis vinifera (grapevine)) (UniProt Q6L9M9).
T1 sequence: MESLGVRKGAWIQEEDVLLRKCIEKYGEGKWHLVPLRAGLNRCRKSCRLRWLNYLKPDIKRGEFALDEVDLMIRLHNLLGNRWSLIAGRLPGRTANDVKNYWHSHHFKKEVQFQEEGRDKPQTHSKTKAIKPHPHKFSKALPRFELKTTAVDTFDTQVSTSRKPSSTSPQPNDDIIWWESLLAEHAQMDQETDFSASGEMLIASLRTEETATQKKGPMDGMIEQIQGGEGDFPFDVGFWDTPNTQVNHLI
In words: yeast three-hybrid; AD-VvMYBA1 with pBridge BD-VvMYC1 (ADH1 promoter) and VvSBP8/13 under the Met25 promoter in AH109; growth on SD/-Trp/-Leu/-His/-Ade plus 1 mM Met (competitor repressed) and on SD/-Trp/-Leu/-His/-Ade/-Met (competitor expressed).

Experiment [2] addresses T2, cLUC-VvMYBA1 (Vitis vinifera (grapevine)) (UniProt Q6L9M9).
T2 sequence: T1 sequence
Description: split reporter; split-LUC in 4-week-old tobacco leaves; 35S:VvMYC1-nLUC and 35S:cLUC-VvMYBA1 co-expressed with VvSBP8, VvSBP13 fusion or fluorescent protein control; Pro35S:P19 co-infiltrated.

The target in experiment [3] is BD-VvSBP8 (Vitis vinifera (grapevine)). Description: two-hybrid; BD and AD fusions co-transformed into yeast strain AH109; growth on SD/-Trp-Leu-His-Ade medium.
Experiment [4] deals with BD-VvSBP13 (Vitis vinifera (grapevine)). The experiment is described as above.
Experiment [5] addresses pBridge-VvMYC1 (Vitis vinifera (grapevine)). Description: yeast three-hybrid; AD-VvMYBA1 with pBridge BD-VvMYC1 (ADH1 promoter) and VvSBP8/13 under the Met25 promoter in AH109; growth on SD/-Trp/-Leu/-His/-Ade plus 1 mM Met (competitor repressed) and on SD/-Trp/-Leu/-His/-Ade/-Met (competitor expressed).
Experiment [6] deals with VvMYC1-nLUC (Vitis vinifera (grapevine)). Description: split reporter; split-LUC in 4-week-old tobacco leaves; 35S:VvMYC1-nLUC and 35S:cLUC-VvMYBA1 co-expressed with VvSBP8, VvSBP13 fusion or fluorescent protein control; Pro35S:P19 co-infiltrated.

Take “VvSBP8 expressed from pBridge under the Met25 promoter (Vitis vinifera (grapevine))”: in experiment [1], the binding entry is “binds”.
Regarding VvSBP8-GFP (Vitis vinifera (grapevine)), the binding result in experiment [2] is recorded as “binds”.
As for “VvSBP13 expressed from pBridge under the Met25 promoter (Vitis vinifera (grapevine))”, in experiment [1], the binding entry is “binds”.
Take “VvSBP13-GFP (Vitis vinifera (grapevine))”: the binding entry in experiment [2] is “binds”.

B1: AD-VvMYBA1 (protein, UniProt Q6L9M9 1-250)
chain: T1 sequence
As to B1, the binding entry in experiment [3], in experiment [4] and in experiment [5] was “binds” in each case.

B2: cLUC-VvMYBA1 (protein, UniProt Q6L9M9 1-250)
chain: T1 sequence
As to B2, in experiment [6], the binding entry was “binds”.
